# Results taken from PubChem BioAssay AID504847 (National Center for Advancing Translational Sciences (NCATS), 2011).
# Protein sequences, listed by entry. Tags and fused reporters are not part of them.
# UniProt P11473, whole entry, looked up: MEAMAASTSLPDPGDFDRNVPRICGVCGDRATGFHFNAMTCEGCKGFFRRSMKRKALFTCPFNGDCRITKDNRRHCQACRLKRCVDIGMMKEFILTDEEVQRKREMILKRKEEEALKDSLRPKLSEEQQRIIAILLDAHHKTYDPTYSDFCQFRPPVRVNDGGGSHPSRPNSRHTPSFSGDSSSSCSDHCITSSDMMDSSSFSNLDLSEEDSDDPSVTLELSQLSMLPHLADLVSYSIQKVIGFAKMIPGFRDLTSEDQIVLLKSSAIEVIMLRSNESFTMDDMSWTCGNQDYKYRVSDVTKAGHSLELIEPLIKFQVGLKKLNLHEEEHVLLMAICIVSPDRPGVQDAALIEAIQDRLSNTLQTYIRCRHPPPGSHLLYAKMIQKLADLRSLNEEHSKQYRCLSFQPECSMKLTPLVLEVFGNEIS
# Out of some 400,000 compounds screened, about 3,700 (0.93%) were called active. The shares of active, inactive and inconclusive entries below differ from those in the screen. Calls follow the shape of the dose curve; as a rule, active = well fitted inhibition curve with a large enough effect; inconclusive = small, poorly fitted or top-dose-only effect, or another doubt; inactive = no such curve, though single readings can be large or run the other way. Potencies of inconclusive entries are doubtful fits and often do not repeat.
# Target: Vitamin D3 receptor (Homo sapiens) (UniProt P11473)
# Experiment: Inhibitors of the vitamin D receptor (VDR): qHTS
# Details: VDR-SRC2-3 peptide fluorescence polarization, 2 h; max response, negative = inhibition: stronger effect = lower value
# Outline: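 After 23 nl compound addition and a short centrifugation, plates sat for 2 hours at ambient temperature; polarization of fluorescence then indicated loss of VDR binding to peptide SRC2-3.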
# % is scaled to controls: 0 for no effect and ±100 for the full control effect; potency is read from the fitted curve at half-maximal effect.
Compound,Potency,"max response, negative = inhibition"
COc1ccc(NC(=S)NC(NC(=O)CCl)C(Cl)(Cl)Cl)c([N+](=O)[O-])c1 (centres undefined),active: 89.1 µM,
Cc1ccc(S(=O)(=O)NNc2ccccc2)cc1,"inconclusive: 56.2 µM [inhibitor, partial curve, poor fit]",
CN(C)[C@@H]1CCC[C@H]1OC(=O)C(c1ccccc1)c1ccccc1,"inconclusive: 39.8 µM [inhibitor, full curve, poor fit]",
O=C(Cc1ccccc1)NCc1n[nH]c(=S)n1-c1ccc(Br)cc1,"inconclusive: 22.4 µM [inhibitor, single point]",
COc1ccccc1/C(C)=N/NC(=O)c1nnn(-c2nonc2N)c1C(C)C,"inconclusive: 22.4 µM [inhibitor, partial curve, poor fit]",
Cn1cnc([N+](=O)[O-])c1S(=O)(=O)Oc1cccc2ccccc12,"inconclusive: 14.1 µM [inhibitor, full curve, poor fit]",
C[C@H](CO)N1C[C@H](C)[C@H](CN(C)C(=O)Nc2ccc(C(F)(F)F)cc2)Oc2c(NC(=O)c3ccncc3)cccc2C1=O,"inconclusive: 79.4 µM [inhibitor, single point]",
CCC(Sc1nc(N)cc(=O)[nH]1)C(=O)NC(C(=O)OC)c1ccccc1 (centres undefined),"inconclusive: 7.08 µM [inhibitor, full curve, poor fit]",
Cc1cccc(OCC(=O)NNC(=O)Cn2c(=O)cnc3ccccc32)c1,,inactive: -2.73%
CCCCn1c(N)c(N(CCC(C)C)C(=O)C2CC(=O)N(c3cccc(SC)c3)C2)c(=O)[nH]c1=O (centres undefined),,inactive: -5.73%
COc1cccc(OC)c1OCc1cc(C2C3CCCC=C3C(C#N)=C(N)C2(C#N)C#N)c(C)cc1C (centres undefined),"inconclusive: 50.1 µM [inhibitor, partial curve, poor fit]",
Cc1ccc(S(=O)(=O)Oc2ccc(/C=C3/N=C(c4ccccc4)OC3=O)cc2)cc1,"inconclusive: 89.1 µM [inhibitor, single point]",
CN(C)C(=O)CCSC(SCCC(=O)O)c1cccc(/C=C/c2ccc3ccc(Cl)cc3n2)c1 (centres undefined),active: 35.5 µM,
COc1ccc(C(=O)NN)cc1COc1ccc(Br)cc1,"inconclusive: 89.1 µM [inhibitor, single point]",
COCCN1CSC(=S)N(Cc2ccco2)C1,active: 89.1 µM,
COc1ccc(Cn2c(C)nc3c(c2=O)c2nc4ccccc4nc2n3Cc2ccco2)cc1,"inconclusive: 39.8 µM [inhibitor, partial curve, poor fit]",
C/C=C\C=C/C(=O)Nc1cccc(C2=NOC3(C2)C[C@@H](C(N)=O)N(C(=O)/C=C/C=C\C)C3)c1 (some centres undefined),"inconclusive: 89.1 µM [inhibitor, single point]",
O=c1c(C(c2ccccc2)c2c(O)nc3n(c2=O)CCS3)c(O)nc2n1CCS2,,inactive: -4.21%
N#CC1=C(N)C(C#N)(C#N)C(c2ccncc2)C2CN(C(=O)OCc3ccccc3)CC=C12 (centres undefined),"inconclusive: 12.6 µM [inhibitor, full curve, poor fit]",
Cc1ccccc1C(=O)Nc1nc(=S)ss1,"inconclusive: 79.4 µM [inhibitor, partial curve, poor fit]",
S=C(c1ccc(-c2ccc(Cl)cc2Cl)o1)N1CCCC1,"inconclusive: 89.1 µM [inhibitor, single point]",
CC(C)(C)c1nc(SCC(=O)NCc2ccco2)c2ccccc2n1,"inconclusive: 79.4 µM [inhibitor, single point]",

Compound,Potency,"max response, negative = inhibition"
Cc1cc(O)c(C(=O)/C=C/c2ccccc2Br)c(=O)o1,"inconclusive: 15.8 µM [inhibitor, full curve, poor fit]",
COc1cc(C(=O)NNC(=O)C2CC=CCC2C(=O)O)cc(OC)c1OC (centres undefined),"inconclusive: 6.31 µM [inhibitor, partial curve, poor fit]",
COc1cccc(OC)c1C(=O)Nc1cccc(NC(=O)c2cccs2)c1,"inconclusive: 56.2 µM [inhibitor, partial curve, poor fit]",
Cc1ccc(SCC(=O)NC(=O)c2ccccc2Br)c(C)c1,,inactive: 3.61%
CCc1ccc(C(=O)CSc2nc(-c3ccccc3)nc3c2CCCC3)cc1,,inactive: -3.43%
Cc1cc2oc(=O)cc(CSc3nc(N)cc(N)n3)c2cc1C(C)C,,inactive: -1.24%
O=C(/C=C/c1ccco1)NCC1COc2ccccc2O1 (centres undefined),"inconclusive: 100 µM [inhibitor, single point]",
Cc1ccc(Nc2ccc(S(=O)(=O)N3CCOCC3)cc2[N+](=O)[O-])cc1C,,inactive: 6.35%
COc1ccc(-c2[nH]ncc2CNCc2cc(C)n(C)n2)c(F)c1,"inconclusive: 12.6 µM [inhibitor, partial curve, poor fit]",
CCOC(=O)CN(C(=O)CNC(=O)c1cccs1)C(C(=O)NC1CCCC1)c1cccnc1 (centres undefined),"inconclusive: 79.4 µM [inhibitor, single point]",
Cc1ccc(C(=O)N2CCN=C2SCc2ccc([N+](=O)[O-])cc2)cc1,,inactive: -17.2%
COc1ccc(Nc2nc(CC(C)=O)ns2)cc1OC,"inconclusive: 31.6 µM [inhibitor, partial curve, poor fit]",
CCc1c(C)sc(NC(=O)CN2CCN(C(=O)c3ccco3)CC2)c1C(=O)OC,,inactive: 5.45%
COc1ccc2c(Sc3ccccc3)c(C(=O)N3CCC(C)CC3)[nH]c2c1,,inactive: 1.61%
CN(C)c1ncc2nc(CCc3ccccc3)c(=O)n(-c3ccccc3)c2n1,"inconclusive: 89.1 µM [inhibitor, partial curve, poor fit]",
COC(=O)N1CCC[C@@]2(CCN(c3ccccn3)C2)C1,"inconclusive: 89.1 µM [inhibitor, partial curve, poor fit]",
CCOC(=O)c1c(-c2ccc(C)cc2C)csc1NC(=O)c1ccccc1Cl,"inconclusive: 1.26 µM [inhibitor, full curve, poor fit]",
CCOc1cc(/C=C/c2cc(C(F)(F)F)[nH]c(=O)n2)ccc1O,"inconclusive: 20 µM [inhibitor, full curve]",
CCOc1ccc(N=C/C=C/c2ccccc2)c(O)c1,"inconclusive: 89.1 µM [inhibitor, single point]",
COC(=O)c1c(-c2cccs2)csc1NC(=O)COc1ccccc1,,inactive: -18.1%
COc1ccc(C(=O)CCc2ccccc2)c(O)c1,"inconclusive: 28.2 µM [inhibitor, partial curve, poor fit]",
Cc1oc(-c2ccccc2Cl)nc1CSCC(=O)O,,inactive: -0.732%

# Single records (already shown).
# CCOC(=O)c1c(-c2ccc(C)cc2C)csc1NC(=O)c1ccccc1Cl is listed with Potency: inconclusive: 1.26 µM [inhibitor, full curve, poor fit]
# CCc1ccc(C(=O)CSc2nc(-c3ccccc3)nc3c2CCCC3)cc1 is listed with max response, negative = inhibition: inactive: -3.43%
# COc1ccc(-c2[nH]ncc2CNCc2cc(C)n(C)n2)c(F)c1 is listed with Potency: inconclusive: 12.6 µM [inhibitor, partial curve, poor fit]
# COc1ccc2c(Sc3ccccc3)c(C(=O)N3CCC(C)CC3)[nH]c2c1 is listed with max response, negative = inhibition: inactive: 1.61%

# Further compounds follow.

Compound,Potency,"max response, negative = inhibition"
COC(=O)c1c(-c2cccs2)csc1NC(=O)c1ccc(C(C)(C)C)cc1,"inconclusive: 22.4 µM [inhibitor, partial curve, poor fit]",
Cn1c(C(=O)NCCCN2CCc3ccccc3C2)cc2c(=O)n(C)c3ccccc3c21,"inconclusive: 8.91 µM [inhibitor, full curve, poor fit]",
O=C(Nc1ccccc1)Nc1ccc(O)c2ccccc12,active: 50.1 µM,
Cc1c(O)cc2c(c1O)C(=O)CC(c1ccc(O)cc1)O2 (centres undefined),"inconclusive: 89.1 µM [inhibitor, single point]",
CC(=O)c1c(C)cc(C)c(CSc2nnc(-c3ccco3)o2)c1C,,inactive: 0.519%
COC(=O)c1ccc(CSc2nc3ccncc3n2Cc2ccc(F)cc2)cc1,,inactive: 0.91%
CS(=O)(=O)N1CCN(c2ccccc2NC(=O)c2ccc([N+](=O)[O-])o2)CC1,"inconclusive: 25.1 µM [inhibitor, single point]",
Cc1ccc(C2=NN=C(NC(=O)C(F)(F)F)SC2)cc1,active: 50.1 µM,
O=[N+]([O-])c1ccc(N2CCN(S(=O)(=O)c3ccccc3)CC2)c2cccnc12,"inconclusive: 79.4 µM [inhibitor, partial curve, poor fit]",
CS(=O)(=O)c1ccc(Cl)c(NC(=O)Cc2ccccc2F)c1,active: 79.4 µM,
N#Cc1c2c(c(NCc3ccco3)n3c1nc1ccccc13)CCC2,,inactive: 1.03%
Cc1ccccc1-c1cc(C(=O)Nc2sc(C(=O)OC(C)C)c(C)c2C#N)c2ccccc2n1,"inconclusive: 79.4 µM [inhibitor, single point]",
Cn1c(N=Nc2ccc(N3CCOCC3)cc2)[n+](C)c2ccccc21,"inconclusive: 89.1 µM [inhibitor, single point]",
CN(C)S(=O)(=O)N1CCC(Oc2cccc(C(=O)NCCCC3CCCC3)c2)CC1,active: 28.2 µM,
CC(C)CNc1cc(NC2CCCCC2)c2c3c(onc13)-c1ccccc1C2=O,"inconclusive: 89.1 µM [inhibitor, single point]",
O=[N+]([O-])c1ccc(-c2c[nH]c(=S)[nH]2)cc1,"inconclusive: 79.4 µM [inhibitor, partial curve, poor fit]",
CC(C)(C)NC(=O)C(c1ccncc1)N(C(=O)Cn1nnc(-c2ccc(F)cc2)n1)c1ccccc1 (centres undefined),"inconclusive: 79.4 µM [inhibitor, partial curve, poor fit]",
CSc1ccc(CCNC(=O)CCc2c(C)nc3c4cccnc4nn3c2C)cc1,,inactive: -6.45%
CC(=O)NCCNC(=O)c1ccc2c(=O)n(CCc3ccccc3)c(=O)[nH]c2c1,"inconclusive: 2.82 µM [inhibitor, partial curve, poor fit]",
Cc1[nH]n(C(N)=S)c(=O)c1C(c1ccccc1)C(C#N)C#N (centres undefined),"inconclusive: 56.2 µM [inhibitor, partial curve, poor fit]",
